Assay results reported in ChEMBL document CHEMBL5674883, “The Heterochromatin Landscape in Migrating Cells and the Importance of H3K27me3 for Associated Transcriptome Alterations” (Cells, 2018).
This continues a long series; more values of the same kind are listed elsewhere.

Chains of the proteins cited; added tags and fusions are not shown.
UniProt Q61188, whole entry: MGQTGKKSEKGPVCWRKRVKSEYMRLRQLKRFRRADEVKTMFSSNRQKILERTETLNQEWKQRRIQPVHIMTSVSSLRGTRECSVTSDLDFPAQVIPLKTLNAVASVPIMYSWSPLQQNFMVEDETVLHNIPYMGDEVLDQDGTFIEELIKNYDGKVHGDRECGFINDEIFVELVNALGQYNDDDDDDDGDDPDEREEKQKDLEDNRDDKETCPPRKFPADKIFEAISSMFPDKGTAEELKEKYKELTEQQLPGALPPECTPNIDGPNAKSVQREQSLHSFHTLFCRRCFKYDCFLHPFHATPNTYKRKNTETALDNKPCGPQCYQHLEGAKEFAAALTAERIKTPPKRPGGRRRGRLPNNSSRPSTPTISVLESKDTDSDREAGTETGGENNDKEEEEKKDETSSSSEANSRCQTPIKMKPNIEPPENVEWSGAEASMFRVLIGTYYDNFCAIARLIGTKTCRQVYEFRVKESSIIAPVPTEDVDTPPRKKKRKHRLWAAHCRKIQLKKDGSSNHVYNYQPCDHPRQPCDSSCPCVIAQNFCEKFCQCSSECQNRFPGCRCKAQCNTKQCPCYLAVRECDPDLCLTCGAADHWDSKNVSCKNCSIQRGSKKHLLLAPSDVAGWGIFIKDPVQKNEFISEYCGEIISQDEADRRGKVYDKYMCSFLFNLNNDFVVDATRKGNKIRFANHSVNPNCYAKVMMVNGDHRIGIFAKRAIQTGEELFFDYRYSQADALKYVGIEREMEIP

How the values were obtained:
Type in all cases: cell-based
[1] = target: Histone-lysine N-methyltransferase EZH2 (Mus musculus) (UniProt Q61188); experiment: Inhibition of EZH2 in mouse B16-F1 migrating cells assessed as fold change in H3K27me3-buffered regulated Gramd1a-mRNA expression at 3 uM measured by ChIP-seq analysis relative to control cells
[2] = target: Histone-lysine N-methyltransferase EZH2 (Mus musculus) (UniProt Q61188); experiment: Inhibition of EZH2 in mouse B16-F1 migrating cells assessed as fold change in H3K27me3-buffered regulated Cyp51-mRNA expression at 3 uM measured by ChIP-seq analysis relative to control cells
[3] = target: Histone-lysine N-methyltransferase EZH2 (Mus musculus) (UniProt Q61188); experiment: Inhibition of EZH2 in mouse B16-F1 migrating cells assessed as fold change in H3K27me3-independent regulated Nppb-mRNA expression at 3 uM measured by ChIP-seq analysis relative to control cells
[4] = target: Histone-lysine N-methyltransferase EZH2 (Mus musculus) (UniProt Q61188); experiment: Inhibition of EZH2 in mouse B16-F1 migrating cells assessed as fold change in H3K27me3-buffered regulated Nptx1-mRNA expression at 3 uM measured by ChIP-seq analysis relative to control cells
[5] = target: Histone-lysine N-methyltransferase EZH2 (Mus musculus) (UniProt Q61188); experiment: Inhibition of EZH2 in mouse B16-F1 migrating cells assessed as fold change in H3K27me3-buffered regulated Thoc2-mRNA expression at 3 uM measured by ChIP-seq analysis relative to control cells
[6] = target: Histone-lysine N-methyltransferase EZH2 (Mus musculus) (UniProt Q61188); experiment: Inhibition of EZH2 in mouse B16-F1 migrating cells assessed as fold change in H3K27me3-buffered regulated Zc2hc1a-mRNA expression at 3 uM measured by ChIP-seq analysis relative to control cells
[7] = target: Histone-lysine N-methyltransferase EZH2 (Mus musculus) (UniProt Q61188); experiment: Inhibition of EZH2 in mouse B16-F1 migrating cells assessed as fold change in H3K27me3-independent regulated Ahnak2-mRNA expression at 3 uM measured by ChIP-seq analysis relative to control cells
[8] = target: Histone-lysine N-methyltransferase EZH2 (Mus musculus) (UniProt Q61188); experiment: Inhibition of EZH2 in mouse B16-F1 migrating cells assessed as fold change in H3K27me3-buffered regulated Zic2-mRNA expression at 3 uM measured by ChIP-seq analysis relative to control cells
[9] = target: Histone-lysine N-methyltransferase EZH2 (Mus musculus) (UniProt Q61188); experiment: Inhibition of EZH2 in mouse B16-F1 migrating cells assessed as fold change in H3K27me3-buffered regulated Pank4-mRNA expression at 3 uM measured by ChIP-seq analysis relative to control cells
[10] = target: Histone-lysine N-methyltransferase EZH2 (Mus musculus) (UniProt Q61188); experiment: Inhibition of EZH2 in mouse B16-F1 migrating cells assessed as fold change in H3K27me3-buffered regulated Rad54b-mRNA expression at 3 uM measured by ChIP-seq analysis relative to control cells
[11] = target: Histone-lysine N-methyltransferase EZH2 (Mus musculus) (UniProt Q61188); experiment: Inhibition of EZH2 in mouse B16-F1 migrating cells assessed as fold change in H3K27me3-buffered regulated Sgol2a-mRNA expression at 3 uM measured by ChIP-seq analysis relative to control cells
[12] = target: Histone-lysine N-methyltransferase EZH2 (Mus musculus) (UniProt Q61188); experiment: Inhibition of EZH2 in mouse B16-F1 migrating cells assessed as fold change in H3K27me3-independent regulated Tnfsf9-mRNA expression at 3 uM measured by ChIP-seq analysis relative to control cells
[13] = target: Histone-lysine N-methyltransferase EZH2 (Mus musculus) (UniProt Q61188); experiment: Inhibition of EZH2 in mouse B16-F1 migrating cells assessed as fold change in H3K27me3-buffered regulated Cenpj-mRNA expression at 3 uM measured by ChIP-seq analysis relative to control cells
[14] = target: Histone-lysine N-methyltransferase EZH2 (Mus musculus) (UniProt Q61188); experiment: Inhibition of EZH2 in mouse B16-F1 migrating cells assessed as fold change in H3K27me3-buffered regulated Igf2bp1-mRNA expression at 3 uM measured by ChIP-seq analysis relative to control cells
[15] = target: Histone-lysine N-methyltransferase EZH2 (Mus musculus) (UniProt Q61188); experiment: Inhibition of EZH2 in mouse B16-F1 migrating cells assessed as fold change in H3K27me3-buffered regulated Gm23130-mRNA expression at 3 uM measured by ChIP-seq analysis relative to control cells
[16] = target: T1, RNA polymerase II (Mus musculus) (UniProt P08775+Q8CFI7+P97760+A0A3Q4L2S8+Q80UW8+P61219+P62488+Q923G2+P60898+O08740+Q63871+P62876); experiment: Inhibition of RNA polymerase II in mouse B16-F1 migrating cells assessed as fold change in Zfp24-RNA stability at 0.1 mM measured by ChIP-seq analysis relative to control cells
[17] = target: T1, RNA polymerase II (Mus musculus); experiment: Inhibition of RNA polymerase II in mouse B16-F1 migrating cells assessed as fold change in Mrpl30-RNA stability at 0.1 mM measured by ChIP-seq analysis relative to control cells
[18] = target: T1, RNA polymerase II (Mus musculus); experiment: Inhibition of RNA polymerase II in mouse B16-F1 migrating cells assessed as fold change in C330007P06Rik-RNA stability at 0.1 mM measured by ChIP-seq analysis relative to control cells
[19] = target: T1, RNA polymerase II (Mus musculus); experiment: Inhibition of RNA polymerase II in mouse B16-F1 migrating cells assessed as fold change in Tbc1d31-RNA stability at 0.1 mM measured by ChIP-seq analysis relative to control cells
[20] = target: T1, RNA polymerase II (Mus musculus); experiment: Inhibition of RNA polymerase II in mouse B16-F1 migrating cells assessed as fold change in Mpp7-RNA stability at 0.1 mM measured by ChIP-seq analysis relative to control cells
[21] = target: T1, RNA polymerase II (Mus musculus); experiment: Inhibition of RNA polymerase II in mouse B16-F1 migrating cells assessed as fold change in Srsf10-RNA stability at 0.1 mM measured by ChIP-seq analysis relative to control cells
[22] = target: T1, RNA polymerase II (Mus musculus); experiment: Inhibition of RNA polymerase II in mouse B16-F1 migrating cells assessed as fold change in Yif1b-RNA stability at 0.1 mM measured by ChIP-seq analysis relative to control cells
[23] = target: T1, RNA polymerase II (Mus musculus); experiment: Inhibition of RNA polymerase II in mouse B16-F1 migrating cells assessed as fold change in Anln-RNA stability at 0.1 mM measured by ChIP-seq analysis relative to control cells
[24] = target: T1, RNA polymerase II (Mus musculus); experiment: Inhibition of RNA polymerase II in mouse B16-F1 migrating cells assessed as fold change in Rc3h2-RNA stability at 0.1 mM measured by ChIP-seq analysis relative to control cells
[25] = target: T1, RNA polymerase II (Mus musculus); experiment: Inhibition of RNA polymerase II in mouse B16-F1 migrating cells assessed as fold change in Casd1-RNA stability at 0.1 mM measured by ChIP-seq analysis relative to control cells
[26] = target: T1, RNA polymerase II (Mus musculus); experiment: Inhibition of RNA polymerase II in mouse B16-F1 migrating cells assessed as fold change in Mbnl1-RNA stability at 0.1 mM measured by ChIP-seq analysis relative to control cells
[27] = target: T1, RNA polymerase II (Mus musculus); experiment: Inhibition of RNA polymerase II in mouse B16-F1 migrating cells assessed as fold change in Tmem234-RNA stability at 0.1 mM measured by ChIP-seq analysis relative to control cells
[28] = target: T1, RNA polymerase II (Mus musculus); experiment: Inhibition of RNA polymerase II in mouse B16-F1 migrating cells assessed as fold change in Senp6-RNA stability at 0.1 mM measured by ChIP-seq analysis relative to control cells
[29] = target: T1, RNA polymerase II (Mus musculus); experiment: Inhibition of RNA polymerase II in mouse B16-F1 migrating cells assessed as fold change in 1110008F13Rik-RNA stability at 0.1 mM measured by ChIP-seq analysis relative to control cells
[30] = target: T1, RNA polymerase II (Mus musculus); experiment: Inhibition of RNA polymerase II in mouse B16-F1 migrating cells assessed as fold change in Ccp110-RNA stability at 0.1 mM measured by ChIP-seq analysis relative to control cells

With `CCCc1cc(C)[nH]c(=O)c1CNC(=O)c1cc(-c2ccnc(N3CCN(C)CC3)c2)cc2c1cnn2C(C)C` the log2FC [1] was -0.42, the log2FC [2] was 0.48 and the log2FC [3] was 0.7. The log2FC [4] was 1.14, the log2FC [5] was -0.43 and the log2FC [6] was -0.41. It also gave a log2FC [7] of 0.56, a log2FC [8] of -0.54 and a log2FC [9] of -0.51. The log2FC [10] was -0.52, the log2FC [11] was -0.62 and the log2FC [12] was -1.35. The log2FC [13] was -0.48, the log2FC [14] was -0.51 and the log2FC [15] was -1.5.
Molecule `OC[C@H]1O[C@@H](n2cnc3cc(Cl)c(Cl)cc32)[C@H](O)[C@@H]1O` has a log2FC [16] of -0.54, a log2FC [17] of 0.38 and a log2FC [18] of -0.7. For the same molecule, the log2FC [19] was -0.42, the log2FC [20] was -0.69 and the log2FC [21] was -0.47. It also gave a log2FC [22] of 0.52, a log2FC [23] of -0.5 and a log2FC [24] of -0.45. It also gave a log2FC [25] of -0.59, a log2FC [26] of -0.68 and a log2FC [27] of 0.41. For the same molecule, the log2FC [28] was -0.65, the log2FC [29] was 0.41 and the log2FC [30] was -0.58.
